In the supplement of paper PMC10849652:
The other results are listed elsewhere or left out.

By UniProt entry, the sequences of proteins in these tests, tags left out. Where a name states a change or a piece, a line headed by the entry shows the natural chain unless it says otherwise.
UniProt Q7Z5L9: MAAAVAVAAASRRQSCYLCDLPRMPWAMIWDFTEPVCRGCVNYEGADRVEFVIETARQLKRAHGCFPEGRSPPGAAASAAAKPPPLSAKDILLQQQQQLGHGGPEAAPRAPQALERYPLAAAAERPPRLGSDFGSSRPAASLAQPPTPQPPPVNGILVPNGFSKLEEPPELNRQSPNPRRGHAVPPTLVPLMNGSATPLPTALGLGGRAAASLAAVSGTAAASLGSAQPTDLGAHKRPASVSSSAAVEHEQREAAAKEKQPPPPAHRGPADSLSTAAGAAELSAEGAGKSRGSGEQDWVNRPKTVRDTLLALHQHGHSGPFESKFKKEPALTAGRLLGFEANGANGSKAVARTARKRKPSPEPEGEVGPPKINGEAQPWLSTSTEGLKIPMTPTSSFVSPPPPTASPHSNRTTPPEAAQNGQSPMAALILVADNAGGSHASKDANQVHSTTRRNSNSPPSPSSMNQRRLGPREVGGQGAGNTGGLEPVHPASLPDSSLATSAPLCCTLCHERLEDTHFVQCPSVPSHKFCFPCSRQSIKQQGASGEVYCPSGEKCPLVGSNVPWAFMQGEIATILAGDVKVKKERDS
UniProt Q12894: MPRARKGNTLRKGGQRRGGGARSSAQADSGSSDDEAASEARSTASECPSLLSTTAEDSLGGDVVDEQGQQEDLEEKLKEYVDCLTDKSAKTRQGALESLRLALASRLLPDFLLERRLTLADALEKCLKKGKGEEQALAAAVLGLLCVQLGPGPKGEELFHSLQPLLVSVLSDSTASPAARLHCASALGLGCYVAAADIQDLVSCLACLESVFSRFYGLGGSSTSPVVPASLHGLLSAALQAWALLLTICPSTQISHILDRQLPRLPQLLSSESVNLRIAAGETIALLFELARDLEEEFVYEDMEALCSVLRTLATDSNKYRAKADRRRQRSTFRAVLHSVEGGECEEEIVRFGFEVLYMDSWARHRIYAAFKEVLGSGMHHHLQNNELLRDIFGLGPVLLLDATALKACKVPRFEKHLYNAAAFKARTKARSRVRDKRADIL
UniProt Q9NPH2: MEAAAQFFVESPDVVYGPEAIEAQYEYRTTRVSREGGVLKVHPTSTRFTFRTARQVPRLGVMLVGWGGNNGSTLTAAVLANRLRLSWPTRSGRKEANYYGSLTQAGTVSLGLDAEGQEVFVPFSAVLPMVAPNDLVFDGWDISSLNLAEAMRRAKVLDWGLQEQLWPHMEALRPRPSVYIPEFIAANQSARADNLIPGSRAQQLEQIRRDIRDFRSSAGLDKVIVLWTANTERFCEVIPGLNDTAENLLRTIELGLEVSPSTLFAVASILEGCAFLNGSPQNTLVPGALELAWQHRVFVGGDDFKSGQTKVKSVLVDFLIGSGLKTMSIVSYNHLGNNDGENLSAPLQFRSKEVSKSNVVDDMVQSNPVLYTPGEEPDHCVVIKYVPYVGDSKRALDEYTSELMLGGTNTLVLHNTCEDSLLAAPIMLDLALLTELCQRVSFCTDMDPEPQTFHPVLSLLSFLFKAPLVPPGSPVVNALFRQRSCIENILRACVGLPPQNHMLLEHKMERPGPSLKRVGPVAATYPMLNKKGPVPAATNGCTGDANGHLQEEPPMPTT
UniProt Q16891: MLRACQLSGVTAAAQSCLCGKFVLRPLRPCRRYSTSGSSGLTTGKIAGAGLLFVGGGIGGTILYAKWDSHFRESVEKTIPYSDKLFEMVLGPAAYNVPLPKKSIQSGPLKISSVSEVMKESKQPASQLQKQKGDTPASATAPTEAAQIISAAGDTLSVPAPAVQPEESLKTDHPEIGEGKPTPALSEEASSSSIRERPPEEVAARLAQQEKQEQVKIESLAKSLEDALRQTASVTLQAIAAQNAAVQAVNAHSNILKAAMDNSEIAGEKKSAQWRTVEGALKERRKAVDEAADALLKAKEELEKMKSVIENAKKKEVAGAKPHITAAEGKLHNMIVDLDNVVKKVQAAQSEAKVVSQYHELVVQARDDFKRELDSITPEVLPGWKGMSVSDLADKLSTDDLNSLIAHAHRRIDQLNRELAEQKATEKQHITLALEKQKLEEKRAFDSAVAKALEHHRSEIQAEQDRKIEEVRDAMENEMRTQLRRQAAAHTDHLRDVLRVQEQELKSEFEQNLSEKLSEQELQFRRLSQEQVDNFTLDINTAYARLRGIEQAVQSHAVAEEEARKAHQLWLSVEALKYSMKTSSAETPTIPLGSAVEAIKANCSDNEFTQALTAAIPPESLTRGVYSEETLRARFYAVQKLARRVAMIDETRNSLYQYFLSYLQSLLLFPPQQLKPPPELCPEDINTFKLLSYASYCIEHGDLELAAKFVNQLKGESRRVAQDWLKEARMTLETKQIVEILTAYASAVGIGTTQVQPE
UniProt O14920: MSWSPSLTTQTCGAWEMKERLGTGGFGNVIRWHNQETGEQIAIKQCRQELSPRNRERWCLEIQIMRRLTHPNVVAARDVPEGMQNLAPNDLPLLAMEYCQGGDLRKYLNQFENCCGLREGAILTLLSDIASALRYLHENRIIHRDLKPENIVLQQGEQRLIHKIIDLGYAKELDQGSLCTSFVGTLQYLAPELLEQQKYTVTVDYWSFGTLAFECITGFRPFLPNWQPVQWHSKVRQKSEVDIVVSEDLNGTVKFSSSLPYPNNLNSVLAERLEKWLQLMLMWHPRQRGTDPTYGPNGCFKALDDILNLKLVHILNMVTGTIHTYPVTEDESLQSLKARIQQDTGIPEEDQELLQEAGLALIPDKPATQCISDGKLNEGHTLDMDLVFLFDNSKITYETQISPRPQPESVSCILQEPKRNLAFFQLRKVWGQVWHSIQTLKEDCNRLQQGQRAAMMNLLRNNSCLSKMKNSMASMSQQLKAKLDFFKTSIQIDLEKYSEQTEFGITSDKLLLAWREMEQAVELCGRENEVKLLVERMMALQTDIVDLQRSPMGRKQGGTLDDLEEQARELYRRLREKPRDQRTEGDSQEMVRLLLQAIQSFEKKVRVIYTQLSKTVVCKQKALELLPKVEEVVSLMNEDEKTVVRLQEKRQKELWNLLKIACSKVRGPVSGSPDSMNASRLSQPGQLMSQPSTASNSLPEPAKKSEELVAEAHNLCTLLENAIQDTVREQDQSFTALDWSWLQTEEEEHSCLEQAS
UniProt Q06033: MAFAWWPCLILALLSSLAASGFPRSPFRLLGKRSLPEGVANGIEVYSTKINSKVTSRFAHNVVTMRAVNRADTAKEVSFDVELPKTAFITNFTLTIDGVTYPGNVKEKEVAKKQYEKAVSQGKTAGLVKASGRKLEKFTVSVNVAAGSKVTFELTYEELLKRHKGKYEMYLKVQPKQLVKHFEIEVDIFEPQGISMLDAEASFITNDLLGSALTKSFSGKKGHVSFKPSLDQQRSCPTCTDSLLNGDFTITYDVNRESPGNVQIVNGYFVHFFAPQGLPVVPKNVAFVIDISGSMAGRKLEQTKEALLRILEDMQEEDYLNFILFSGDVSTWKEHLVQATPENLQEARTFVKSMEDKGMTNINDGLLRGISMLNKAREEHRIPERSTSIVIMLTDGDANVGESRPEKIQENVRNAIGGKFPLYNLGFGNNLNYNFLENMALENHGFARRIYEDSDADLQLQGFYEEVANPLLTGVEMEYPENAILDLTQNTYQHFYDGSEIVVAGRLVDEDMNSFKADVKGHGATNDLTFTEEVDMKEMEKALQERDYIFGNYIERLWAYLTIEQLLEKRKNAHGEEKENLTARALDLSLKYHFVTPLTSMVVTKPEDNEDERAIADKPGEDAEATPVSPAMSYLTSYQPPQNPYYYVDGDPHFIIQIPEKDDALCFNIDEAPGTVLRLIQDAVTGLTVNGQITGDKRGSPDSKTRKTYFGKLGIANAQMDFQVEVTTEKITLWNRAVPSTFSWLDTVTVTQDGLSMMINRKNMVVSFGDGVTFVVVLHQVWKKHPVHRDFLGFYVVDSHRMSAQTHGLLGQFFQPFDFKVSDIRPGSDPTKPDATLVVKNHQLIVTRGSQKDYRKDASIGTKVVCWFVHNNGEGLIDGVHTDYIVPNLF
UniProt Q9NVM9, whole entry, looked up: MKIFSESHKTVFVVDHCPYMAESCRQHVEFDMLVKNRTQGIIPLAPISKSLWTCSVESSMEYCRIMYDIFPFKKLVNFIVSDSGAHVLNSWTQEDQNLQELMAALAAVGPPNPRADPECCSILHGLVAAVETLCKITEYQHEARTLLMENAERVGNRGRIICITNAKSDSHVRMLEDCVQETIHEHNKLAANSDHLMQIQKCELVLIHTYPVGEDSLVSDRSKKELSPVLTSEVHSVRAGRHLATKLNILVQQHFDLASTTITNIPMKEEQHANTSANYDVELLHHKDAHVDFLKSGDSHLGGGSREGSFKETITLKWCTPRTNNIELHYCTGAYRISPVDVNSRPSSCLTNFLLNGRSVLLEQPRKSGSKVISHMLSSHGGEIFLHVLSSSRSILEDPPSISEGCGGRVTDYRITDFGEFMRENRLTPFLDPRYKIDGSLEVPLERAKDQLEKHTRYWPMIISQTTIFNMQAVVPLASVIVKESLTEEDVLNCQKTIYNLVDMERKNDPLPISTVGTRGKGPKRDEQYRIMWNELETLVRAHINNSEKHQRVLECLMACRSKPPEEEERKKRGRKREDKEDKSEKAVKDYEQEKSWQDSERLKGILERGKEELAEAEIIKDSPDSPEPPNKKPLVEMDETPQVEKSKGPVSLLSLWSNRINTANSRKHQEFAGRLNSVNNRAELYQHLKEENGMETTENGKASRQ
UniProt P08648, whole entry, looked up: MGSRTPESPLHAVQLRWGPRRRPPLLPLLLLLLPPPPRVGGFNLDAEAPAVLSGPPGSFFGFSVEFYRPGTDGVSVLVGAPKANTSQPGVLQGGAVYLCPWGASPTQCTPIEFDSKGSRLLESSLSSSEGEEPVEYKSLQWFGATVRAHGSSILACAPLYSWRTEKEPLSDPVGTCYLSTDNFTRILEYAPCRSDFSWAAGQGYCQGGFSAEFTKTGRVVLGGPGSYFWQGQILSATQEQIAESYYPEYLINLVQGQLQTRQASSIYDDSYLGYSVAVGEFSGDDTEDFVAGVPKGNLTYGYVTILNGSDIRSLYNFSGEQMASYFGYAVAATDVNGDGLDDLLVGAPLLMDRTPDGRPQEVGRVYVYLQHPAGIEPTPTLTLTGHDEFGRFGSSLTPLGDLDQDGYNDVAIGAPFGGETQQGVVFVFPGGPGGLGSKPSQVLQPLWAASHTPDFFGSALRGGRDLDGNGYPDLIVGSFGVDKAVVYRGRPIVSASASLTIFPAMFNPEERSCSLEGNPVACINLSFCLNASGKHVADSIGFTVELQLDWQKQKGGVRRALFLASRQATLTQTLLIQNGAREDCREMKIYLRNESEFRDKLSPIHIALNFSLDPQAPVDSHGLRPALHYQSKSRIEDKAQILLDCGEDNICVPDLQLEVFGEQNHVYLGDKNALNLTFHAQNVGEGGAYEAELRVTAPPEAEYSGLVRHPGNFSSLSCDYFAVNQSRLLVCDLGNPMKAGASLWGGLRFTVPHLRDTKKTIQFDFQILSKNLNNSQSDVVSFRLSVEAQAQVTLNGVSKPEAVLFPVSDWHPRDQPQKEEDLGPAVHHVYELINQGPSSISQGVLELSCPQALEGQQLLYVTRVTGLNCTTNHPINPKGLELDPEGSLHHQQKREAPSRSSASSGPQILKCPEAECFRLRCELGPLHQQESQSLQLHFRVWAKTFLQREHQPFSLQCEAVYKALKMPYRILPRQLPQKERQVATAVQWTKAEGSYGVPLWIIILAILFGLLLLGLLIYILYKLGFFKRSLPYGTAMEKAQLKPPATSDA
UniProt P51553: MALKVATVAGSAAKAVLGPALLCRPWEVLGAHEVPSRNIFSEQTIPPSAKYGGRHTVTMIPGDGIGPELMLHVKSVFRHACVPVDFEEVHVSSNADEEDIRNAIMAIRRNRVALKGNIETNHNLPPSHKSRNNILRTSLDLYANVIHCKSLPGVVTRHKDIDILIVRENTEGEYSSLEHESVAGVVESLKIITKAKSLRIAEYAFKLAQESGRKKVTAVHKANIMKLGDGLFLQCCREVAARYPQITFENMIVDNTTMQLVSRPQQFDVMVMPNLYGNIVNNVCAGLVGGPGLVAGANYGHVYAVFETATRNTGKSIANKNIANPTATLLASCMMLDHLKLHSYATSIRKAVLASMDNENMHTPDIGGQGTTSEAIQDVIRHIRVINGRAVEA
UniProt P18065: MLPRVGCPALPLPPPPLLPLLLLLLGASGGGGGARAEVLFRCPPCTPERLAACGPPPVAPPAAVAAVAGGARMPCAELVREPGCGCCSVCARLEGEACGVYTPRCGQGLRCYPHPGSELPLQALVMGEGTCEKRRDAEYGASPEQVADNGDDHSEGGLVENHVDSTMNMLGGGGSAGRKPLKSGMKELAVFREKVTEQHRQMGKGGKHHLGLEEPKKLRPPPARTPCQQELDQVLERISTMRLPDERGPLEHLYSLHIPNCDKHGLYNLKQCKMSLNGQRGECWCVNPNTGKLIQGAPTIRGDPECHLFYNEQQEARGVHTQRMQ

Columns and labels:
Experiment in all cases: log2 fold change, soluble protein after heating vs DMSO (PISA); higher = thermal stabilisation; K562 cells, 10 uM, 30 min; active = over 0.2 and 3.5 SD of the protein, either way, in both replicates (recomputed)
[1] = compound: CC1=C(C=C(C=C1)NC(=O)C2=CC(=CC=C2)C(C)(C)C#N)NC3=CC4=C(C=C3)N=CN(C4=O)C
Procedure, shortened: (§1)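 Aliquots of K562 cells (2×10^6 cells/mL) treated with 10 μM compound for 30 min were heated for 3 min over 48°C-58°C. After pooling and extraction in PBS with 0.5% NP-40 at 4°C, soluble protein from a 21,000xg, 90 min spin was quantified by TMTpro 16plex LC-MS/MS with channel sums equalised. Thermal stability is expressed against control samples, from duplicates, as a log2 fold change.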

[2] = compound: CC1=C(C=C(C=C1)NC(=O)C2=CC(=CC=C2)N(C)C)NC(=O)C3=CC=C(C=C3)O
Procedure, shortened: as §1

[3] = compound: CC1=CC=C(C=C1)SC2=C3C=C(SC3=CN=C2)C(=O)N
Procedure, shortened: as §1

[4] = compound: CC1=NC(=CC=C1)C2=C(N=C(N2)C(C)(C)C)C3=CC4=NC=CN=C4C=C3
Procedure, shortened: as §1

[5] = compound: CCCCN(Cc1ccc(C(=O)NO)cc1)C(=O)Nc1ccccc1 [Nexturastat A]
Procedure, shortened: as §1

[6] = compound: CCCS(=O)(=O)Nc1ccc(F)c(C(=O)c2c[nH]c3ncc(-c4ccc(Cl)cc4)cc23)c1F [vemurafenib]
Procedure, shortened: as §1

[7] = compound: CCCS(=O)(=O)Nc1ccc(F)c(C(=O)c2c[nH]c3ncc(Cl)cc23)c1F
Procedure, shortened: as §1

[8] = compound: CCCc1cc(C)[nH]c(=O)c1CNC(=O)c1cc(-c2ccnc(N3CCN(C)CC3)c2)cc2c1cnn2C(C)C
Procedure, shortened: as §1

[9] = compound: CCN(CC)Cc1ccc2cc(COC(=O)Nc3ccc(C(=O)NO)cc3)ccc2c1 [givinostat]
Procedure, shortened: as §1

[10] = compound: CCN(CCCOc1ccc2c(Nc3cc(CC(=O)Nc4cccc(F)c4)[nH]n3)ncnc2c1)CCOP(=O)(O)O [barasertib]
Procedure, shortened: as §1

[11] = compound: CC[C@@H]1C(=O)N(C)c2cnc(Nc3ccc(C(=O)NC4CCN(C)CC4)cc3OC)nc2N1C1CCCC1
Procedure, shortened: as §1

[12] = compound: CC[C@@H]1C(=O)N(C)c2cnc(Nc3ccc(C(=O)N[C@H]4CC[C@H](N5CCN(CC6CC6)CC5)CC4)cc3OC)nc2N1C(C)C [volasertib]
Procedure, shortened: as §1

[13] = compound: CC[C@H](C)N1C=C(C2=C(C=C(C=C21)C3=CN=C(C=C3)N4CCNCC4)C(=O)NCC5=C(C=C(NC5=O)C)C)C
Procedure, shortened: as §1

[14] = compound: CC[C@H](C)[C@@H](C(=O)N[C@@H]([C@@H](C)O)C(=O)N[C@@H](CC(C)C)C(=O)[C@]1(CO1)C)NC(=O)[C@H]([C@@H](C)CC)N(C)C(=O)C [epoxomicin]
Procedure, shortened: as §1

[15] = compound: CCn1c(C(=O)N(C2CC2)C2CC2)cc2c3c(ncn3C)c(Nc3cc(C)n(C)n3)nc21
Procedure, shortened: as §1

[16] = compound: CCn1cc(-c2ccnc3[nH]c(-c4cccc(CN(C)C)c4)cc23)c(-c2ccc(NC(=O)N(C)C)cc2)n1
Procedure, shortened: as §1

[17] = compound: CN(C)CC(=O)Nc1ccc2[nH]c(=O)c3ccccc3c2c1
Procedure, shortened: as §1

[18] = compound: CN(CCOC1=CC=C(C=C1)C[C@H]2C(=O)NC(=O)S2)C3=CC=CC=N3 (racemic) [rosiglitazone]
Procedure, shortened: as §1

[19] = compound: CN1C2=C(C3=C1C(=O)N(N=C3)CC4=CC(=CC=C4)N)SC(=C2)S(=O)C
Procedure, shortened: as §1

[20] = compound: CN1CCC(CNc2ccc3ncc(-c4cccc(OC(F)(F)F)c4)n3n2)CC1
Procedure, shortened: as §1

Measured: log2 fold change

INTS3 (UniProt Q68E01)
inactive: [1] -0.049 | [2] 0.033 | [3] -0.016 | [4] -0.005 | [5] 0.054 | [6] 0.053 | [7] 0.058 | [8] -0.006 | [9] 0.137 | [10] 0.05 | [11] -0.014 | [12] -0.226 | [13] 0.076 | [14] 0.125 | [15] -0.051 | [16] -0.027 | [17] 0.025 | [18] 0.058 | [19] -0.04 | [20] -0.049

IRF2BP2 (UniProt Q7Z5L9)
inactive: [1] 0.001 | [2] 0.005 | [3] 0.017 | [4] 0.081 | [5] 0.022 | [6] 0.063 | [7] 0.006 | [8] -0.034 | [9] 0.063 | [10] 0.002 | [11] 0.007 | [12] -0.06 | [13] 0.037 | [14] 0.149 | [15] -0.007 | [16] -0.063 | [17] 0.032 | [18] 0.027 | [19] -0.008 | [20] 0.048

IFRD2 isoform 2 (UniProt Q12894)
inactive: [1] 0.093 | [2] 0.035 | [3] -0.129 | [4] -0.13 | [5] 0.055 | [6] -0.043 | [7] 0.062 | [8] -0.225 | [9] -0.2 | [10] -0.142 | [11] 0.084 | [12] 0.045 | [13] -0.261 | [14] -0.02 | [16] 0.029 | [17] -0.319 | [19] -0.023 | [20] 0.196

ISYNA1 (UniProt Q9NPH2)
inactive: [1] 0.006 | [2] 0.011 | [3] 0.085 | [4] 0.051 | [5] -0.153 | [6] 0.031 | [7] -0.016 | [8] 0.016 | [9] -0.242 | [10] 0.027 | [11] -0.021 | [12] 0.02 | [13] 0.106 | [14] -0.025 | [15] -0.055 | [16] 0.049 | [17] 0.031 | [18] 0.018 | [19] -0.024 | [20] 0.003

IMMT isoform 4 (UniProt Q16891)
active: [20] -0.325
inactive: [1] 0.009 | [2] 0.012 | [3] 0.032 | [4] 0.032 | [5] -0.027 | [6] -0.007 | [7] 0.002 | [8] -0.045 | [9] -0.022 | [10] 0.001 | [11] -0.131 | [12] -0.099 | [13] 0.013 | [14] 0.035 | [16] -0.004 | [17] 0.002 | [19] -0.047

IKBKB (UniProt O14920)
inactive: [1] 0.035 | [2] 0.003 | [3] 0.091 | [4] -0.235 | [5] 0.44 | [6] -0.092 | [7] 0.047 | [8] 0.229 | [9] 0.2 | [10] 0.016 | [11] 0.272 | [12] -0.225 | [13] 0.088 | [14] -0.051 | [15] -0.119 | [17] -0.063 | [18] 0.14 | [19] 0.236

ITIH3 (UniProt Q06033)
inactive: [1] -0.124 | [2] 0.335 | [3] 0.004 | [4] 0.163 | [5] 0.043 | [6] 0.158 | [7] -0.13 | [8] -0.217 | [9] -0.119 | [10] 0.003 | [11] 0.037 | [12] 0.215 | [13] -0.064 | [14] -0.17 | [15] 0.06 | [16] 0.03 | [17] -0.18 | [18] 0.076 | [19] 0.291 | [20] 0.233

INTS13 (UniProt Q9NVM9)
inactive: [1] -0.005 | [2] 0.022 | [3] 0.009 | [4] 0.063 | [5] -0.025 | [6] 0.06 | [7] 0.015 | [8] 0.056 | [9] 0.019 | [10] 0.028 | [11] -0.05 | [12] -0.12 | [13] 0.115 | [14] 0.068 | [15] -0.05 | [16] 0.032 | [17] 0.03 | [18] 0.051 | [19] -0.045 | [20] -0.078

ITGA5 (UniProt P08648)
inactive: [1] -0.027 | [2] 0.007 | [3] 0.071 | [4] -0.004 | [5] 0.036 | [6] 0.046 | [7] 0.007 | [8] -0.011 | [9] -0.014 | [10] -0.004 | [11] 0.043 | [12] -0.039 | [13] -0.013 | [14] -0.019 | [15] 0.012 | [16] -0.045 | [17] -0.009 | [18] 0 | [19] -0.104 | [20] 0.175

IGF2BP2 (UniProt Q9Y6M1)
inactive: [1] 0.009 | [2] -0.001 | [3] -0.008 | [4] -0.094 | [5] 0.383 | [6] 0.065 | [7] 0 | [8] -0.011 | [9] 0.153 | [10] -0.041 | [11] 0.176 | [12] -0.076 | [13] -0.063 | [14] -0.203 | [16] 0.076 | [17] 0.01 | [19] 0.432 | [20] -0.016

ITPA (UniProt Q9BY32)
inactive: [1] 0.015 | [2] -0.014 | [3] 0.053 | [4] -0.012 | [5] 0.084 | [6] -0.001 | [7] 0.049 | [8] -0.03 | [9] -0.004 | [10] 0.007 | [11] -0.013 | [12] -0.08 | [13] 0.003 | [14] 0.102 | [15] -0.023 | [16] -0.003 | [17] 0.024 | [18] 0.016 | [19] -0.072 | [20] -0.058

IDH3G (UniProt P51553)
inactive: [1] -0.008 | [2] -0.004 | [3] -0.013 | [4] 0.026 | [5] -0.072 | [6] 0.013 | [7] 0.029 | [8] -0.054 | [9] -0.012 | [10] 0.037 | [11] -0.008 | [12] 0.029 | [13] 0.004 | [14] 0.02 | [15] -0.006 | [16] -0.079 | [17] -0.017 | [18] -0.027 | [19] -0.059 | [20] 0.013

IGFBP2 (UniProt P18065)
inactive: [1] -0.154 | [2] 0.173 | [3] 0.201 | [4] 0.349 | [5] 0.106 | [6] 0.262 | [7] -0.003 | [8] -0.409 | [9] 0.056 | [10] 0.012 | [11] -0.319 | [12] -0.614 | [13] -0.167 | [14] -0.707 | [16] 0.158 | [17] 0.003 | [19] 0.323 | [20] -0.638

ITPKA (UniProt P23677)
inactive: [1] 0.164 | [2] 0.176 | [3] 0.055 | [4] 0.155 | [5] 0.166 | [6] 0.017 | [7] -0.099 | [8] 0.079 | [9] 0.52 | [10] 0.332 | [11] 0.065 | [12] -0.144 | [13] -0.441 | [14] -0.085 | [15] -0.213 | [16] -0.216 | [17] 0.032 | [18] 0.253 | [19] 0.138 | [20] 0.033

IKBKG isoform 2 (UniProt Q9Y6K9)
inactive: [1] -0.006 | [2] 0.026 | [3] -0.008 | [4] -0.011 | [5] -0.019 | [6] -0.013 | [7] -0.051 | [8] 0.008 | [9] 0.004 | [10] -0.017 | [11] 0.039 | [12] 0.059 | [13] -0.062 | [14] 0.015 | [15] -0.012 | [16] 0 | [17] -0.053 | [18] 0.015 | [19] 0.016 | [20] 0.068

IQGAP2 (UniProt Q13576)
inactive: [1] 0.048 | [2] -0.053 | [3] 0.13 | [4] -0.022 | [5] 0.198 | [6] 0.043 | [7] 0.097 | [8] 0.081 | [9] 0.178 | [10] 0.112 | [11] -0.028 | [12] -0.582 | [13] 0.164 | [14] 0.009 | [15] -0.168 | [16] -0.13 | [17] 0.078 | [18] 0.032 | [19] 0.093 | [20] -0.205

Pulled one by one from above (2):
IQGAP2 (UniProt Q13576)
inactive: [1] 0.048 | [2] -0.053 | [3] 0.13 | [4] -0.022 | [5] 0.198 | [6] 0.043 | [7] 0.097 | [8] 0.081 | [9] 0.178 | [10] 0.112 | [11] -0.028 | [12] -0.582 | [13] 0.164 | [14] 0.009 | [15] -0.168 | [16] -0.13 | [17] 0.078 | [18] 0.032 | [19] 0.093 | [20] -0.205

IKBKG isoform 2 (UniProt Q9Y6K9)
inactive: [1] -0.006 | [2] 0.026 | [3] -0.008 | [4] -0.011 | [5] -0.019 | [6] -0.013 | [7] -0.051 | [8] 0.008 | [9] 0.004 | [10] -0.017 | [11] 0.039 | [12] 0.059 | [13] -0.062 | [14] 0.015 | [15] -0.012 | [16] 0 | [17] -0.053 | [18] 0.015 | [19] 0.016 | [20] 0.068
